Measurements as given in article PMC10973386.
Results are given in words; binding and its absence hold for the method and conditions named. Binding seen in cells or lysates may run through a third protein. Some binding calls cover weakened binding; strength is not graded here. Tags and fused reporters may be left off the sequences shown.

Protein sequences, listed by entry. Tags and fused reporters are not part of them.
UniProt Q9Y5B8: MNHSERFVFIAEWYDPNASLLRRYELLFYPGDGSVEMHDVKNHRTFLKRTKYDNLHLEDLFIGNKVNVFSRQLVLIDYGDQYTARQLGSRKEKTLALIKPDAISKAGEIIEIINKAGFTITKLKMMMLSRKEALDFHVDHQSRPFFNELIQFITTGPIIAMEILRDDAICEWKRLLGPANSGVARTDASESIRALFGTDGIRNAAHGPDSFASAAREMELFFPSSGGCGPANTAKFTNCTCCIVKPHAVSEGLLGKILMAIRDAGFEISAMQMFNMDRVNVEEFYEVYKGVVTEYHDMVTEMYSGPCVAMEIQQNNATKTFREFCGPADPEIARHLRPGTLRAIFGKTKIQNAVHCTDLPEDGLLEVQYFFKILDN

Molecular target: T1, FLAG-TCHP full length (human) (UniProt Q9BT92)
T1 sequence: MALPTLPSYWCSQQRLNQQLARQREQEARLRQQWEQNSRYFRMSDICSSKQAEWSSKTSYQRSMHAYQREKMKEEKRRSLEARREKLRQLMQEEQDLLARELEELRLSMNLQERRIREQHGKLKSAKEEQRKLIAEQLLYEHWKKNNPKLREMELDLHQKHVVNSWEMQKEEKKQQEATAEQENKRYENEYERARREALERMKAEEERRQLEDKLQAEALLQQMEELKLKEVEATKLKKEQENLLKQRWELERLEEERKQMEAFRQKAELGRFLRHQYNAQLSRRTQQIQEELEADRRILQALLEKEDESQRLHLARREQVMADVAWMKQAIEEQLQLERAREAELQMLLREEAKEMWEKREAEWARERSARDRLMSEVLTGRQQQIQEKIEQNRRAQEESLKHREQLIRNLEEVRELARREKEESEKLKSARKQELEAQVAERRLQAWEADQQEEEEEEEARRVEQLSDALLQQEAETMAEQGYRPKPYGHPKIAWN
Experiment: co-IP; FLAG pulldown: FLAG-tagged constructs expressed in HEK293T cells; lysis in EBC buffer (140 mM NaCl, 10 mM Tris-HCl, 0.5% NP-40, protease inhibitors); anti-FLAG (M2) magnetic beads 1 h, five washes, elution with FLAG peptide; immunoblot

“NME7 in HEK293T cells (from UniProt Q9Y5B8 1-376)” was tested, and the binding was “binds”.
